These are yes or no findings as the source states them, for the method shown. In cells and extracts the contact can be indirect. Here binding means that the protein was enriched with, or labelled near, the bait; the list need not be complete.
target: FlagBirA*-KRAS4B (human) (UniProt P01116); test: proximity labelling; BioID: FlagBirA*-RAS bait in Flp-In T-REx 293 cells, 1 µg/mL tetracycline and 50 µM biotin for 24 h; modified RIPA lysis, Streptavidin Sepharose capture, trypsin, LC-MS/MS; hits at SAINT score ≥ 0.75; labelling radius ~10 nm

binding | Binder
binds | DENND5B (protein, UniProt Q6ZUT9 1-1274) MSGSCAAPGPGSGSSPAACRFAHYFVLCGIDADSGLEPDELAGENFDQSPLRRTFKSKVLAHYPQNIEWNPFDQDAVNMLCMPKGLSFRTQTDNKDPQFHSFIITREDGSRTYGFVLTFYEEVTSKQICTAMQTLYQMHNAEHYSSVYASSSCSMDSLASSLDEGDTTSLLKLQRYNSYDISRDTLYVSKSICLITPLPFMQACKKFLIQLYKAVTSQQPPPLPLESYIHNILYEVPLPPPGRSLKFYGVYEPVICQRPGPSELPLSDYPLREAFELLGLENLVQVFTCVLLEMQILLYSQDYQRLMTVAEGITTLLFPFQWQHVYVPILPASLLHFLDAPVPYLMGLQSKEGTDRSKLELPQEANLCFVDIDNHFIELPEEFPQFPNKVDFIQELSEVLVQFGIPPEGSLHCSESTSKLKNMVLKDLVNDKKNGNVCTNNISMYELLKGNETIARLQALAKRTGVAVEKMDLSASLGEKDKDLKLHCEEAELRDYQLNVQLREVFANRFTQMFADYEAFVIQTAQDMESWLTNREQMQNFDKASFLSDQPEPYLPFLSRFIETQMFATFIDNKIMSQWEEKDPLLRVFDTRIDKIRLYNVRAPTLRTSIYQKCSTLKEAAQSIEQRLMKMDHTAIHPHLLDMKIGQGKYEQGFFPKLQSDVLATGPTSNNRWVSRSATAQRRKERLRQHSEHVGLDNDLREKYMQEARSLGKNLRQPKLSDLSPAVIAQTNCKFVEGLLKECRMKTKRMLVEKMGHEAVELGHGEANITGLEENTLIASLCDLLERIWSHGLQVKQGKSALWSHLIQFQDREEKQEHLAESPVALGPERRKSDSGVMLPTLRVSLIQDMRHIQNMSEIKTDVGRARAWIRLSLEKKLLSQHLKQLLSNQPLTKKLYKRYAFLRCEEEREQFLYHLLSLNAVDYFCFTSVFTTIMIPYRSVIIPIKKLSNAIITSNPWICVSGELGDTGVMQIPKNLLEMTFECQNLGKLTTVQIGHDNSGLLAKWLVDCVMVRNEITGHTYRFPCGRWLGKGIDDGSLERILIGELMTSASDEDLVKQCRTPPQQKSPTTARRLSITSLTGKNNKPNAGQIQEGIGEAVNNIVKHFHKPEKERGSLTVLLCGENGLVAALEQVFHHGFKSARIFHKNVFIWDFIEKVVAYFETTDQILDNEDDVLIQKSSCKTFCHYVNAINTAPRNIGKDGKFQILVCLGTRDRLLPQWIPLLAECPAITRMYEESALLRDRMTVNSLIRILQTIQDFTIVLEGSLIKGVDV
binds | DENND3 (protein, UniProt A2RUS2 1-1198) MRSLRKKREKPRPEQWKGLPGPPRAPEPEDVAVPGGVDLLTLPQLCFPGGVCVATEPKEDCVHFLVLTDVCGNRTYGVVAQYYRPLHDEYCFYNGKTHRECPGCFVPFAVCVVSRFPYYNSLKDCLSCLLALLKPCKDFEVDSHIKDFAAKLSLIPSPPPGPLHLVFNMKSLQIVLPARADPESPILDLDLHLPLLCFRPEKVLQILTCILTEQRIVFFSSDWALLTLVTECFMAYLYPLQWQHPFVPILSDQMLDFVMAPTSFLMGCHLDHFEEVSKEADGLVLINIDHGSITYSKSTDDNVDIPDVPLLAAQTFIQRVQSLQLHHELHAAHLLSSTDLKEGRAHRRSWQQKLNCQIQQTTLQLLVSIFRDVKNHLNYEHRVFNSEEFLKTRAPGDHQFYKQVLDTYMFHSFLKARLNRRMDAFAQMDLDTQSEEDRINGMLLSPRRPTVEKRASRKSSHLHVTHRRMVVSMPNLQDIAMPELAPRNSSLRLTDTAGCRGSSAVLNVTPKSPYTFKIPEIHFPLESKCVQAYHAHFVSMLSEAMCFLAPDNSLLLARYLYLRGLVYLMQGQLLNALLDFQNLYKTDIRIFPTDLVKRTVESMSAPEWEGAEQAPELMRLISEILDKPHEASKLDDHVKKFKLPKKHMQLGDFMKRVQESGIVKDASIIHRLFEALTVGQEKQIDPETFKDFYNCWKETEAEAQEVSLPWLVMEHLDKNECVCKLSSSVKTNLGVGKIAMTQKRLFLLTEGRPGYLEISTFRNIEEVRRTTTTFLLRRIPTLKIRVASKKEVFEANLKTECDLWHLMVKEMWAGKKLADDHKDPHYVQQALTNVLLMDAVVGTLQSPGAIYAASKLSYFDKMSNEMPMTLPETTLETLKHKINPSAGEAFPQAVDVLLYTPGHLDPAEKVEDAHPKLWCALSEGKVTVFNASSWTIHQHSFKVGTAKVNCMVMADQNQVWVGSEDSVIYIINVHSMSCNKQLTAHCSSVTDLIVQDGQEAPSNVYSCSMDGMVLVWNVSTLQVTSRFQLPRGGLTSIRLHGGRLWCCTGNSIMVMKMNGSLHQELKIEENFKDTSTSFLAFQLLPEEEQLWAACAGRSEVYIWSLKDLAQPPQRVPLEDCSEINCMIRVKKQVWVGSRGLGQGTPKGKIYVIDAERKTVEKELVAHMDTVRTLCSAEDRYVLSGSGREEGKVAIWKGE
binds | DAB2IP (protein, UniProt Q5VWQ8 1-1189) MSAGGSARKSTGRSSYYYRLLRRPRLQRQRSRSRSRTRPARESPQERPGSRRSLPGSLSEKSPSMEPSAATPFRVTGFLSRRLKGSIKRTKSQPKLDRNHSFRHILPGFRSAAAAAADNERSHLMPRLKESRSHESLLSPSSAVEALDLSMEEEVVIKPVHSSILGQDYCFEVTTSSGSKCFSCRSAAERDKWMENLRRAVHPNKDNSRRVEHILKLWVIEAKDLPAKKKYLCELCLDDVLYARTTGKLKTDNVFWGEHFEFHNLPPLRTVTVHLYRETDKKKKKERNSYLGLVSLPAASVAGRQFVEKWYPVVTPNPKGGKGPGPMIRIKARYQTITILPMEMYKEFAEHITNHYLGLCAALEPILSAKTKEEMASALVHILQSTGKVKDFLTDLMMSEVDRCGDNEHLIFRENTLATKAIEEYLKLVGQKYLQDALGEFIKALYESDENCEVDPSKCSAADLPEHQGNLKMCCELAFCKIINSYCVFPRELKEVFASWRQECSSRGRPDISERLISASLFLRFLCPAIMSPSLFNLLQEYPDDRTARTLTLIAKVTQNLANFAKFGSKEEYMSFMNQFLEHEWTNMQRFLLEISNPETLSNTAGFEGYIDLGRELSSLHSLLWEAVSQLEQSIVSKLGPLPRILRDVHTALSTPGSGQLPGTNDLASTPGSGSSSISAGLQKMVIENDLSGLIDFTRLPSPTPENKDLFFVTRSSGVQPSPARSSSYSEANEPDLQMANGGKSLSMVDLQDARTLDGEAGSPAGPDVLPTDGQAAAAQLVAGWPARATPVNLAGLATVRRAGQTPTTPGTSEGAPGRPQLLAPLSFQNPVYQMAAGLPLSPRGLGDSGSEGHSSLSSHSNSEELAAAAKLGSFSTAAEELARRPGELARRQMSLTEKGGQPTVPRQNSAGPQRRIDQPPPPPPPPPPAPRGRTPPNLLSTLQYPRPSSGTLASASPDWVGPSTRLRQQSSSSKGDSPELKPRAVHKQGPSPVSPNALDRTAAWLLTMNAQLLEDEGLGPDPPHRDRLRSKDELSQAEKDLAVLQDKLRISTKKLEEYETLFKCQEETTQKLVLEYQARLEEGEERLRRQQEDKDIQMKGIISRLMSVEEELKKDHAEMQAAVDSKQKIIDAQEKRIASLDAANARLMSALTQLKERYSMQARNGISPTNPTKLQITENGEFRNSSNC
binds | RASA3 (protein, UniProt Q14644 1-834) MAVEDEGLRVFQSVKIKIGEAKNLPSYPGPSKMRDCYCTVNLDQEEVFRTKIVEKSLCPFYGEDFYCEIPRSFRHLSFYIFDRDVFRRDSIIGKVAIQKEDLQKYHNRDTWFQLQHVDADSEVQGKVHLELRLSEVITDTGVVCHKLATRIVECQGLPIVNGQCDPYATVTLAGPFRSEAKKTKVKRKTNNPQFDEVFYFEVTRPCSYSKKSHFDFEEEDVDKLEIRVDLWNASNLKFGDEFLGELRIPLKVLRQSSSYEAWYFLQPRDNGSKSLKPDDLGSLRLNVVYTEDHVFSSDYYSPLRDLLLKSADVEPVSASAAHILGEVCREKQEAAVPLVRLFLHYGRVVPFISAIASAEVKRTQDPNTIFRGNSLASKCIDETMKLAGMHYLHVTLKPAIEEICQSHKPCEIDPVKLKDGENLENNMENLRQYVDRVFHAITESGVSCPTVMCDIFFSLREAAAKRFQDDPDVRYTAVSSFIFLRFFAPAILSPNLFQLTPHHTDPQTSRTLTLISKTVQTLGSLSKSKSASFKESYMATFYEFFNEQKYADAVKNFLDLISSSGRRDPKSVEQPIVLKEGFMIKRAQGRKRFGMKNFKKRWFRLTNHEFTYHKSKGDQPLYSIPIENILAVEKLEEESFKMKNMFQVIQPERALYIQANNCVEAKDWIDILTKVSQCNQKRLTVYHPSAYLSGHWLCCRAPSDSAPGCSPCTGGLPANIQLDIDGDRETERIYSLFNLYMSKLEKMQEACGSKSVYDGPEQEEYSTFVIDDPQETYKTLKQVIAGVGALEQEHAQYKRDKFKKTKYGSQEHPIGDKSFQNYIRQQSETSTHSI
binds | RASAL2 (protein, UniProt Q9UJF2 1-1139) MQTPEVPAERSPRRRSISGTSTSEKPNSMDTANTSPFKVPGFFSKRLKGSIKRTKSQSKLDRNTSFRLPSLRSTDDRSRGLPKLKESRSHESLLSPCSTVECLDLGRGEPVSVKPLHSSILGQDFCFEVTYLSGSKCFSCNSASERDKWMENLRRTVQPNKDNCRRAENVLRLWIIEAKDLAPKKKYFCELCLDDTLFARTTSKTKADNIFWGEHFEFFSLPPLHSITVHIYKDVEKKKKKDKNNYVGLVNIPTASVTGRQFVEKWYPVSTPTPNKGKTGGPSIRIKSRFQTITILPMEQYKEFAEFVTSNYTMLCSVLEPVISVRNKEELACALVHILQSTGRAKDFLTDLVMSEVDRCGEHDVLIFRENTIATKSIEEYLKLVGQQYLHDALGEFIKALYESDENCEVDPSKCSSSELIDHQSNLKMCCELAFCKIINSYCVFPRELKEVFASWKQQCLNRGKQDISERLISASLFLRFLCPAIMSPSLFNLMQEYPDDRTSRTLTLIAKVIQNLANFAKFGNKEEYMAFMNDFLEHEWGGMKRFLLEISNPDTISNTPGFDGYIDLGRELSVLHSLLWEVVSQLDKGENSFLQATVAKLGPLPRVLADITKSLTNPTPIQQQLRRFTEHNSSPNVSGSLSSGLQKIFEDPTDSDLHKLKSPSQDNTDSYFRGKTLLLVQQASSQSMTYSEKDERESSLPNGRSVSLMDLQDTHAAQVEHASVMLDVPIRLTGSQLSITQVASIKQLRETQSTPQSAPQVRRPLHPALNQPGGLQPLSFQNPVYHLNNPIPAMPKASIDSSLENLSTASSRSQSNSEDFKLSGPSNSSMEDFTKRSTQSEDFSRRHTVPDRHIPLALPRQNSTGQAQIRKVDQGGLGARAKAPPSLPHSASLRSTGSMSVVSAALVAEPVQNGSRSRQQSSSSRESPVPKVRAIQRQQTQQVQSPVDSATMSPVERTAAWVLNNGQYEEDVEETEQNLDEAKHAEKYEQEITKLKERLRVSSRRLEEYERRLLVQEQQMQKLLLEYKARLEDSEERLRRQQEEKDSQMKSIISRLMAVEEELKKDHAEMQAVIDAKQKIIDAQEKRIVSLDSANTRLMSALTQVKERYSMQVRNGISPTNPTKLSITENGEFKNSSC
binds | PGD (enzyme, UniProt P52209 1-483) MAQADIALIGLAVMGQNLILNMNDHGFVVCAFNRTVSKVDDFLANEAKGTKVVGAQSLKEMVSKLKKPRRIILLVKAGQAVDDFIEKLVPLLDTGDIIIDGGNSEYRDTTRRCRDLKAKGILFVGSGVSGGEEGARYGPSLMPGGNKEAWPHIKTIFQGIAAKVGTGEPCCDWVGDEGAGHFVKMVHNGIEYGDMQLICEAYHLMKDVLGMAQDEMAQAFEDWNKTELDSFLIEITANILKFQDTDGKHLLPKIRDSAGQKGTGKWTAISALEYGVPVTLIGEAVFARCLSSLKDERIQASKKLKGPQKFQFDGDKKSFLEDIRKALYASKIISYAQGFMLLRQAATEFGWTLNYGGIALMWRGGCIIRSVFLGKIKDAFDRNPELQNLLLDDFFKSAVENCQDSWRRAVSTGVQAGIPMPCFTTALSFYDGYRHEMLPASLIQAQRDYFGAHTYELLAKPGQFIHTNWTGHGGTVSSSSYNA

Reference: article PMC7696408
